Here are results for 1 molecule from paper PMC8464597.

Sequences of proteins named here, by UniProt entry; tags and fusion partners are left off. A change or cut given only in a name is not applied to a line headed by its entry.
UniProt Q9NPD8: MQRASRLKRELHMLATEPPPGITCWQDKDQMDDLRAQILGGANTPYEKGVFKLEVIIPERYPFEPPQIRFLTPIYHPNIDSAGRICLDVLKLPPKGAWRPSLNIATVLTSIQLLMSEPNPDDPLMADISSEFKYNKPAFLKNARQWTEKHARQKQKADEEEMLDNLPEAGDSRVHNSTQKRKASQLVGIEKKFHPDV

The experiment deals with ubiquitin-conjugating enzyme E2T (UBE2T) (human (endogenous in AGS)) (UniProt Q9NPD8). Put plainly: co-IP; total protein of AGS cells (RIPA lysis buffer) immunoprecipitated with anti-UBE2T antibody; UBE2T and CHPF detected by western blot.

These are yes or no findings as the source states them, for the method shown. In cells and extracts the contact can be indirect. Some entries that bind do so weakly or less than the wild type.

B1: Chondroitin polymerizing factor (CHPF) (protein, UniProt Q8IZ52 1-775)
chain: MRASLLLSVLRPAGPVAVGISLGFTLSLLSVTWVEEPCGPGPPQPGDSELPPRGNTNAARRPNSVQPGAEREKPGAGEGAGENWEPRVLPYHPAQPGQAAKKAVRTRYISTELGIRQRLLVAVLTSQTTLPTLGVAVNRTLGHRLERVVFLTGARGRRAPPGMAVVTLGEERPIGHLHLALRHLLEQHGDDFDWFFLVPDTTYTEAHGLARLTGHLSLASAAHLYLGRPQDFIGGEPTPGRYCHGGFGVLLSRMLLQQLRPHLEGCRNDIVSARPDEWLGRCILDATGVGCTGDHEGVHYSHLELSPGEPVQEGDPHFRSALTAHPVRDPVHMYQLHKAFARAELERTYQEIQELQWEIQNTSHLAVDGDQAAAWPVGIPAPSRPASRFEVLRWDYFTEQHAFSCADGSPRCPLRGADRADVADVLGTALEELNRRYHPALRLQKQQLVNGYRRFDPARGMEYTLDLQLEALTPQGGRRPLTRRVQLLRPLSRVEILPVPYVTEASRLTVLLPLAAAERDLAPGFLEAFATAALEPGDAAAALTLLLLYEPRQAQRVAHADVFAPVKAHVAELERRFPGARVPWLSVQTAAPSPLRLMDLLSKKHPLDTLFLLAGPDTVLTPDFLNRCRMHAISGWQAFFPMHFQAFHPAVAPPQGPGPPELGRDTGRFDRQAASEACFYNSDYVAARGRLAAASEQEEELLESLDVYELFLHFSSLHVLRAVEPALLQRYRAQTCSARLSEDLYHRCLQSVLEGLGSRTQLAMLLFEQEQGNST
B1: the binding entry was “binds”.
